Data from publication PMC12784972.
Results are given in words; binding and its absence hold for the method and conditions named. Binding seen in cells or lysates may run through a third protein. Some results given as binding are weak or reduced against the parent protein; the word gives no strength.

The chains behind the UniProt entries cited, without tags or fusion partners.
UniProt Q62093: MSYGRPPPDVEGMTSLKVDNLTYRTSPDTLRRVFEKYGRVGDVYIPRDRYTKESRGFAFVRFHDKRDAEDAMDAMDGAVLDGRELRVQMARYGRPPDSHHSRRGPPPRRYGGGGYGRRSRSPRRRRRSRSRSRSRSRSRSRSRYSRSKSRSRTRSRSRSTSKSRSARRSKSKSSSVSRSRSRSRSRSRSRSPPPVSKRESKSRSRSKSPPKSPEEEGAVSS

Columns and labels:
[1] = target: TDP43, endogenous in mouse fully grown oocytes (mouse (endogenous in fully grown oocytes)) (UniProt Q921F2); assay: co-IP; endogenous IP from fully grown (GV) mouse oocytes; protein A beads coupled with TDP-43 antibody or rabbit IgG (Fig. 8B)
[2] = target: TAR DNA-binding protein-43 (TDP43), wild type, expressed from a transfected plasmid (UniProt Q921F2); assay: co-IP; transfected cells, 48 h; lysis buffer 50 mM Tris-HCl pH 7.5, 150 mM NaCl, 10% glycerol, 0.5% NP-40; beads 4 h at 4°C; with and without RNase A treatment (Fig. 8A)
[3] = target: TAR DNA-binding protein-43 (TDP43), wild type, expressed from a transfected plasmid (UniProt Q921F2); assay: co-IP; transfected cells, 48 h; lysis buffer 50 mM Tris-HCl pH 7.5, 150 mM NaCl, 10% glycerol, 0.5% NP-40; IP with anti-MYC beads 4 h at 4°C; TDP43 and its mutants with SRSF2 (Fig. 8C,D)
TDP43^G335A = TDP43^G335A (UniProt Q921F2); assay: as above
TDP43^R151A;D247A = TDP43^R151A;D247A (UniProt Q921F2); assay: as above
TDP43^Δ316–346 = TDP43^Δ316–346 (UniProt Q921F2); assay: as above

Measured: binding

SRSF2, endogenous in mouse fully grown oocytes (from UniProt Q62093 1-221)
binds: [1]

SRSF2 (SC35), expressed in transfected cells for co-IP (from UniProt Q62093 1-221)
not listed: [1]
binds: all other assays above
